PubChem BioAssay AID652259 | Drosophila RNAi Screening Center – 2013
The deposit covers about 22,000 reagents; shown is an unselected part of those with a known target gene and a result. In the full data, 233 (1.1%) were called active. 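Light values are raw, unnormalised plate reads; the ratio scores behind the reporter calls were not deposited.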 Unmarked entries are inactive. Reagent sequences are not shown. The record does not give: the amount of reagent, the time to read-out, the dose of the treatment.

Aim: 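Identify new Wingless signalling regulators in fly cells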 (primary screen)
System: Drosophila clone 8 imaginal disc epithelial cells
Knock-down reagent: long dsRNA against Drosophila genes
Challenge: pathway stimulated by co-transfected Wingless expression plasmid
Measured: 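Firefly luciferase from a tcf-site Wingless reporter, measured alongside co-transfected Renilla luciferase that tracks transfection; pathway stimulated by a Wingless plasmid; the firefly-to-Renilla ratio is not deposited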
Direction: firefly reporter light: higher = more Wg reporter light, before normalisation; Renilla control light: higher = more transfected or surviving cells
Hit rule: 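Strong candidates differ from their plate mean by at least two out of four per-plate statistical tests; weak candidates meet just one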
Meaning of the calls: active = candidate regulator (raises or lowers reporter); inactive = not a candidate

Cnep1r2 [DRSC10950]: firefly reporter light, replicate 1 = 7458; Renilla control light, replicate 1 = 3152
CG11902 [DRSC14434]: firefly reporter light, replicate 1 = 26388; firefly reporter light, replicate 2 = 6.70e5; Renilla control light, replicate 1 = 21488; Renilla control light, replicate 2 = 3.42e5
GstD4 [DRSC16685]: firefly reporter light, replicate 1 = 20544; Renilla control light, replicate 1 = 5207
Atu [DRSC12123]: firefly reporter light, replicate 1 = 5353; Renilla control light, replicate 1 = 2645
CG15014 [DRSC08468]: firefly reporter light, replicate 1 = 1883; firefly reporter light, replicate 2 = 5543; Renilla control light, replicate 1 = 1180; Renilla control light, replicate 2 = 2310
CG5569 [DRSC04514]: firefly reporter light, replicate 1 = 1779; firefly reporter light, replicate 2 = 6396; Renilla control light, replicate 1 = 780; Renilla control light, replicate 2 = 2336
sif [DRSC08759]: firefly reporter light, replicate 1 = 3217; Renilla control light, replicate 1 = 1620
sif [DRSC11395]: firefly reporter light, replicate 1 = 2981; firefly reporter light, replicate 2 = 11908; Renilla control light, replicate 1 = 2741; Renilla control light, replicate 2 = 4825
sif [DRSC22065]: firefly reporter light, replicate 1 = 4.51e5; firefly reporter light, replicate 2 = 4.89e5; Renilla control light, replicate 1 = 1.65e5; Renilla control light, replicate 2 = 2.10e5
sif [DRSC22828]: firefly reporter light, replicate 1 = 5.44e5; firefly reporter light, replicate 2 = 5.78e5; Renilla control light, replicate 1 = 1.73e5; Renilla control light, replicate 2 = 2.04e5
MED17 [DRSC16889]: firefly reporter light, replicate 1 = 2548; firefly reporter light, replicate 2 = 6016; Renilla control light, replicate 1 = 1068; Renilla control light, replicate 2 = 1362
mip130 [DRSC18575]: firefly reporter light, replicate 1 = 22651; Renilla control light, replicate 1 = 16052
CG13427 [DRSC06389]: firefly reporter light, replicate 1 = 8027; Renilla control light, replicate 1 = 2193
CG11608 [DRSC14334]: firefly reporter light, replicate 1 = 13536; Renilla control light, replicate 1 = 4627
Gip [DRSC18667]: firefly reporter light, replicate 1 = 2675; Renilla control light, replicate 1 = 1203
CG14107 [DRSC10110]: reporter change call, replicate 1 = Wg reporter activity lowered (active); firefly reporter light, replicate 1 = 1648; Renilla control light, replicate 1 = 2326
DJ-1alpha [DRSC07005]: firefly reporter light, replicate 1 = 6024; Renilla control light, replicate 1 = 2160
